# Values from PubChem BioAssay AID1508597 (Cure First, 2020).
# Screen: 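Survival screen with siRNA in ovarian cancer cells derived from patients, with or without rucaparib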 (primary screen)
# Cells: human ovarian carcinoma lines grown from tumours: OCI-P5x (papillary serous) and OCI-C5x (clear cell)
# Knock-down reagent: siRNA pool against human genes, 1.25 pmol siRNA per well
# Time to read-out: 72 h or 96 h, depending on the cell culture
# Challenge: rucaparib 20 µM (about IC30) or vehicle, present until read-out
# Measurement: 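ATP luminescence measured at 72 or 96 h according to the culture, then normalised and expressed as percent viability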
# Direction: viability, normalised: higher = more viable cells remaining
# Rule for the call: 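Active when normalised viability falls below 80 percent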
# Calls: active = viability under 80%; inactive = viability 80% or more
# This is one part, drawn at random, of about 2,100 deposited reagents. 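Calls flag viability under 80% in either arm, not effects specific to rucaparib; the reference for percent is not stated.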 Entries without a mark were called inactive. Reagent sequences are not shown. The record does not give: the 100% reference.
Gene,rucaparib or vehicle,cell line,technical replicate,"viability, normalised (%)"
EED,Rucaparib,OCI-C5x (clear cell),1,46.2 (active)
EED,Rucaparib,OCI-C5x (clear cell),2,23.8 (active)
EED,Rucaparib,OCI-C5x (clear cell),3,30.5 (active)
EED,Rucaparib,OCI-P5x (serous),1,34.3 (active)
EED,Rucaparib,OCI-P5x (serous),2,23.4 (active)
EED,Rucaparib,OCI-P5x (serous),3,35 (active)
EED,Vehicle,OCI-C5x (clear cell),1,52.1 (active)
EED,Vehicle,OCI-C5x (clear cell),2,37.9 (active)
EED,Vehicle,OCI-C5x (clear cell),3,57.5 (active)
EED,Vehicle,OCI-P5x (serous),1,28.9 (active)
EED,Vehicle,OCI-P5x (serous),2,31 (active)
EED,Vehicle,OCI-P5x (serous),3,70.7 (active)
TPK1,Rucaparib,OCI-C5x (clear cell),1,56.4 (active)
TPK1,Rucaparib,OCI-C5x (clear cell),2,72.3 (active)
TPK1,Rucaparib,OCI-C5x (clear cell),3,53 (active)
TPK1,Rucaparib,OCI-P5x (serous),1,90.3
TPK1,Rucaparib,OCI-P5x (serous),2,84.6
TPK1,Rucaparib,OCI-P5x (serous),3,67.1 (active)
TPK1,Vehicle,OCI-C5x (clear cell),1,40.4 (active)
TPK1,Vehicle,OCI-C5x (clear cell),2,38.9 (active)
TPK1,Vehicle,OCI-C5x (clear cell),3,43.3 (active)
TPK1,Vehicle,OCI-P5x (serous),1,76.9 (active)
TPK1,Vehicle,OCI-P5x (serous),2,70 (active)
TPK1,Vehicle,OCI-P5x (serous),3,58.8 (active)

Ordered by “viability, normalised (%)” (ascending): 3 of the entries above
Gene,rucaparib or vehicle,cell line,technical replicate,"viability, normalised (%)"
TPK1,Vehicle,OCI-C5x (clear cell),2,38.9 (active)
TPK1,Vehicle,OCI-C5x (clear cell),3,43.3 (active)
TPK1,Vehicle,OCI-P5x (serous),1,76.9 (active)
